Test results from publication PMC5808637.
These are yes or no findings as the source states them, for the method shown. In cells and extracts the contact can be indirect. Some results given as binding are weak or reduced against the parent protein; the word gives no strength. For some of these results: Sequences can lack the tags named with a protein.

Chains of the proteins cited; added tags and fusions are not shown. Lines headed by an entry give the natural chain unless they say otherwise; changes in a name come on top.
UniProt Q9Y496: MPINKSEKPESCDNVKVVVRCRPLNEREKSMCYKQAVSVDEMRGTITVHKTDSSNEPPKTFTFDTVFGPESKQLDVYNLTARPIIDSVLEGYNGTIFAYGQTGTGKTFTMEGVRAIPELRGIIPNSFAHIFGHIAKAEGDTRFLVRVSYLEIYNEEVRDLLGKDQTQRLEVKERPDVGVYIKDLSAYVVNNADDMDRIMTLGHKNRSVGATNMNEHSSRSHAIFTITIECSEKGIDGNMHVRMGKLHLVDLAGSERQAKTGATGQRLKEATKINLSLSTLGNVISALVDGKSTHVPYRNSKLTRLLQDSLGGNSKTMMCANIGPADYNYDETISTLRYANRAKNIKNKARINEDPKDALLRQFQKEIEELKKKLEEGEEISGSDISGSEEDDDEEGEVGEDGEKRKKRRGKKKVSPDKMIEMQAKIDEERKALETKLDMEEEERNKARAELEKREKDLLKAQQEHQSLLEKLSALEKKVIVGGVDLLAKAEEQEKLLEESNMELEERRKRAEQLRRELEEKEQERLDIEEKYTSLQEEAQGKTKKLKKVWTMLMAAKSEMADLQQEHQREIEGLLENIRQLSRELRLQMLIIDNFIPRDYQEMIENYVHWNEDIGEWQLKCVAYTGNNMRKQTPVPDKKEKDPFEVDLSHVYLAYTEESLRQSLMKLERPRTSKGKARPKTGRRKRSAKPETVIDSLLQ
UniProt P36405: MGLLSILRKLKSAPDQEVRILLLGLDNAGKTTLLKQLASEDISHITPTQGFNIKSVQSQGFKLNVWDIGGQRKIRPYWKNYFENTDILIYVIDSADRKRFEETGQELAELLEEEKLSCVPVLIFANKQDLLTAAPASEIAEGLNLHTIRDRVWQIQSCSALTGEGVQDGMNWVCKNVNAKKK

How the values were obtained:
[1] = target: full-length, human GFP-Kif3A (human) (UniProt Q9Y496); assay: co-IP; reciprocal co-IPs from lysates of CHO cells co-transfected with two constructs; lysis buffer 25 mM Tris pH 7.5, 150 mM NaCl, 0.25% deoxycholate, 1% NP-40, 1 mM EDTA; Dynabeads Protein G with primary antibodies or GFP-Trap_M beads, 1 h at room temperature; Western blot
[2] = target: T1, human full-length V5-Kif7 (human) (UniProt Q2M1P5); assay: as above
T1 sequence: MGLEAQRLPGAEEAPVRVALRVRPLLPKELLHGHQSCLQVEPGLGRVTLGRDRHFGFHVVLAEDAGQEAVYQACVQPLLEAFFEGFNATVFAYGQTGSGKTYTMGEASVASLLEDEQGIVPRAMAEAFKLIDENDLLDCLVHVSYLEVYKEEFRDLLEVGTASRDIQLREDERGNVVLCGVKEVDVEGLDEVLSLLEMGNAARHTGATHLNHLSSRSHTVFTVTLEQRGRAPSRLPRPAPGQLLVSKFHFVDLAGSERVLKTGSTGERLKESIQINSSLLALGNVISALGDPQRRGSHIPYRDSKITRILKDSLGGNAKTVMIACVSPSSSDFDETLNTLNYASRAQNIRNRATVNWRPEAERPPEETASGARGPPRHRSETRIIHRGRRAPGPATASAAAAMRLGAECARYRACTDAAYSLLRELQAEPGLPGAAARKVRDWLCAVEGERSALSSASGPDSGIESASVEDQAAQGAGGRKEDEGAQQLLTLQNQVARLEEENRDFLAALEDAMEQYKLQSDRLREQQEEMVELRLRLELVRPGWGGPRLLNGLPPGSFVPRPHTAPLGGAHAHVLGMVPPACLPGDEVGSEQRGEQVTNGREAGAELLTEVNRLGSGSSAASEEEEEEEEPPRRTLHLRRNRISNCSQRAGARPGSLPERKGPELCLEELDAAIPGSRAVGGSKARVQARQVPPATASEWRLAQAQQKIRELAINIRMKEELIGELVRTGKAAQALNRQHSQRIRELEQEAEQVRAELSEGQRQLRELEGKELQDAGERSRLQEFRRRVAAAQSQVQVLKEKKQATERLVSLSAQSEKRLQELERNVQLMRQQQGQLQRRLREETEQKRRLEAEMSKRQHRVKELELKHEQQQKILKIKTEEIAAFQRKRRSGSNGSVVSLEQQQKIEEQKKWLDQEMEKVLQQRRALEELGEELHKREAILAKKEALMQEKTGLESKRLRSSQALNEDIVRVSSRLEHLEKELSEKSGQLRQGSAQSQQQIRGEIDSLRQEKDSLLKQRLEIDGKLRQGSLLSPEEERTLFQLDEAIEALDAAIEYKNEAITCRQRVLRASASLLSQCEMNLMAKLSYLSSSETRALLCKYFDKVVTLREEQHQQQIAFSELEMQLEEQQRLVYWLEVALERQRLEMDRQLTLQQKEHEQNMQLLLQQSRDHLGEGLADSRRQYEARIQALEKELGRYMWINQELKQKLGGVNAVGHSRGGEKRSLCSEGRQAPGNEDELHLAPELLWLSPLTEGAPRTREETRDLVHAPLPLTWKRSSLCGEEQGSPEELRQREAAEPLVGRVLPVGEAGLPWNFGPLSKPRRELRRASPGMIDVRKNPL

Row | Substance | binding [1] | binding [2]
1 | Arl3-Q71L-myc (from UniProt P36405 1-182) | no binding | no binding
2 | Arl3-T31N-myc (from UniProt P36405 1-182) | no binding | binds
